In PMC10371797 one finds binding data, which are given here for four substances.

Chains of the proteins cited; added tags and fusions are not shown.
UniProt O75152: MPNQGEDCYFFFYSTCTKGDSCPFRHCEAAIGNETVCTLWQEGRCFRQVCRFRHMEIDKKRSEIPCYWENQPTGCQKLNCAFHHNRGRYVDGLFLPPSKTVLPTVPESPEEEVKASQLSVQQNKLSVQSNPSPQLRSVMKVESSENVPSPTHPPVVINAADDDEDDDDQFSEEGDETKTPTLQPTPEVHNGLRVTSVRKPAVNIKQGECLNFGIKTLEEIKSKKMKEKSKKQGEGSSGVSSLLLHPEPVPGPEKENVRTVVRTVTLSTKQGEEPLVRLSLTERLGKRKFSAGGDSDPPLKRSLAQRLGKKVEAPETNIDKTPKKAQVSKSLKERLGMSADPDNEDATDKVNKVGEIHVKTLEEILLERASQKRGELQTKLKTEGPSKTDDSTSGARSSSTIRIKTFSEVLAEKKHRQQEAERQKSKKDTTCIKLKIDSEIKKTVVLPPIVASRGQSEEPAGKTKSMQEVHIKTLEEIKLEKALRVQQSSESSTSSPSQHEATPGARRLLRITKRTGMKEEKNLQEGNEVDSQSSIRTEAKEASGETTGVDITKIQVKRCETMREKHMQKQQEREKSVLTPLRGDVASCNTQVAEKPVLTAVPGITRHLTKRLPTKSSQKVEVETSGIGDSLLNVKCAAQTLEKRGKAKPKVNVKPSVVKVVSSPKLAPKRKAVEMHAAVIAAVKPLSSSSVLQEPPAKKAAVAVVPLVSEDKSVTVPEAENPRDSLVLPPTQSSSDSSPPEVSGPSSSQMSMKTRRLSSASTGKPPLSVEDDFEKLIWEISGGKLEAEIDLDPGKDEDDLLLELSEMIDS
UniProt Q6NZF1: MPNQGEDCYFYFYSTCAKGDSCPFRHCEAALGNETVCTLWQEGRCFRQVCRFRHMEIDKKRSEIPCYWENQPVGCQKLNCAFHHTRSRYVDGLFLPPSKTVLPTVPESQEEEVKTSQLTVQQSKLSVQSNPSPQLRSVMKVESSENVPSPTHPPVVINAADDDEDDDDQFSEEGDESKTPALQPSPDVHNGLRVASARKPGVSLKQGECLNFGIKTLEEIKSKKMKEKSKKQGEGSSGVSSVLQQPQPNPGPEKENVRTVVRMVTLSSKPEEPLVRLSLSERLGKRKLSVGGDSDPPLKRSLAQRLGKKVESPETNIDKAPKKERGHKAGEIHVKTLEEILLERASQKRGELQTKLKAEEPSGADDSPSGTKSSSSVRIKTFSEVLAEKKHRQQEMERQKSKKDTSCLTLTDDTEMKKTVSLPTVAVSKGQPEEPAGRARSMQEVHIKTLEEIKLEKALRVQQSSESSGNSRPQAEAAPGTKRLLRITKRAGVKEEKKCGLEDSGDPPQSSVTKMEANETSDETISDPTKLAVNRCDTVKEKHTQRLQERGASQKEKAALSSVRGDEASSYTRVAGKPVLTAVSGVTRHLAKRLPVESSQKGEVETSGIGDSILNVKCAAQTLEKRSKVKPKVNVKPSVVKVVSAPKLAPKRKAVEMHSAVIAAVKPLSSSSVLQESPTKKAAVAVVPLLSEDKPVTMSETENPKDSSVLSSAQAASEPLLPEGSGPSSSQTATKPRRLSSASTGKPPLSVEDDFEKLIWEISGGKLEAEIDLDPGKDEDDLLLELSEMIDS
UniProt Q13838: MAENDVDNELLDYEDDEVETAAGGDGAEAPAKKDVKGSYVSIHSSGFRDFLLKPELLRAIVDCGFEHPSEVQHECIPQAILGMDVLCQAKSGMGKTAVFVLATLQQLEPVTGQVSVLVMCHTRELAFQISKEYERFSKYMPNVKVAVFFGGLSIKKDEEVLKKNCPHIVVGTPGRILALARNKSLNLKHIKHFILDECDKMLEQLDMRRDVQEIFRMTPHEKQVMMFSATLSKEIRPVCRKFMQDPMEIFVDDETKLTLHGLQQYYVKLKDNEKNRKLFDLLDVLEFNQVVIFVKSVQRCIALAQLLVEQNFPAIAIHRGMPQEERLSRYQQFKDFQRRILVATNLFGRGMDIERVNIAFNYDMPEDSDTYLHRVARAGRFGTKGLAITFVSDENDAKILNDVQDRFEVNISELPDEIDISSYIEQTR
UniProt P38919: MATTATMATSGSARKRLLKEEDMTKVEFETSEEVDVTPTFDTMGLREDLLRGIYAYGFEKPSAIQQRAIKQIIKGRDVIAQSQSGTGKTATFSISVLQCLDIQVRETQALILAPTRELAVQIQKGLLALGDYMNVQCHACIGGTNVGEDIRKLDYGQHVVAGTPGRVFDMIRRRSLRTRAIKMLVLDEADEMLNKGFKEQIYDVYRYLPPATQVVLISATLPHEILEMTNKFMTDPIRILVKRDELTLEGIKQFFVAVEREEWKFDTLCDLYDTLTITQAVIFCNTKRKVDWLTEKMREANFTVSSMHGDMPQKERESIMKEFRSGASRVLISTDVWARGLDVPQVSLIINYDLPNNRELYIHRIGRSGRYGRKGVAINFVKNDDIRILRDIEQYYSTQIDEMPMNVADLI
UniProt Q91VC3: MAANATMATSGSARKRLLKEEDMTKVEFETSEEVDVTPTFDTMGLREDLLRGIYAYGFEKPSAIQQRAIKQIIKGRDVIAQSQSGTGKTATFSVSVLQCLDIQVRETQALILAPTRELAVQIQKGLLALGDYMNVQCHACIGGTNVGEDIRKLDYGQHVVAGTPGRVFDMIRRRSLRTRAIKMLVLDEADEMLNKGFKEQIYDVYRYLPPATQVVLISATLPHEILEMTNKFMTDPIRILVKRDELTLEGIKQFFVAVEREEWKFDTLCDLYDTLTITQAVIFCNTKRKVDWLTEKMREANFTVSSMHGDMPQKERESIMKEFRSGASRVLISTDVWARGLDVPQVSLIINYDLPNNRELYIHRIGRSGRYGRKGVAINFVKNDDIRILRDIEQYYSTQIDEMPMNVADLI
UniProt P11940: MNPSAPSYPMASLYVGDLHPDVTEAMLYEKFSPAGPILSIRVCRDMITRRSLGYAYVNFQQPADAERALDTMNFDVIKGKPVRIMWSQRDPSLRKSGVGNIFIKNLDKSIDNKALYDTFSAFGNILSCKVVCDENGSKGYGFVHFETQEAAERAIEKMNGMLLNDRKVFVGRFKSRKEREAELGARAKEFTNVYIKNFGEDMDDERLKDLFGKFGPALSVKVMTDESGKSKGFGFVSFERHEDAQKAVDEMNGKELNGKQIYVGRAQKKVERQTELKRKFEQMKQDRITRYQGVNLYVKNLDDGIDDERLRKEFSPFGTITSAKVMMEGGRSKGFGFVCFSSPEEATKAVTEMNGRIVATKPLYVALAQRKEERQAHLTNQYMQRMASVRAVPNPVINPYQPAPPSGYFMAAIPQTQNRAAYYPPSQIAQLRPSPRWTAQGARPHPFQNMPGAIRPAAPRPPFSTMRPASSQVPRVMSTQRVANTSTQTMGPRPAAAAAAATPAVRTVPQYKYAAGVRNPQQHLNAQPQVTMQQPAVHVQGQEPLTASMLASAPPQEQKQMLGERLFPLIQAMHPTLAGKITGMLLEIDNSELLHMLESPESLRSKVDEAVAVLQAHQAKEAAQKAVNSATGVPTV

Experiment [1] has as its target GFP-ZC3H11A(wt) (human) (UniProt O75152). In words: affinity purification with mass spectrometry; GFP, GFP-ZC3H11A(wt) or GFP-ZC3H11A(dZF) as baits in transfected HeLa cells; lysate with benzonase; GFP-Trap magnetic beads, 1 h at 4 °C; LC-MS/MS.
Experiment [2] has as its target ZC3H11A, endogenous, human HeLa cells (human (endogenous in HeLa)) (UniProt O75152). In words: affinity purification with mass spectrometry; anti-ZC3H11A (heavy) against anti-IgG (light) immunoprecipitation from SILAC-labelled HeLa lysates treated with nuclease; Dynabeads Protein G; LC-MS/MS.
Experiment [3] deals with ZC3H11A, endogenous, mouse embryonic stem cells (mouse (endogenous in mESCs)) (UniProt Q6NZF1). In words: affinity purification with mass spectrometry; anti-ZC3H11A and anti-IgG immunoprecipitation from mouse embryonic stem cell lysates treated with benzonase; mass spectrometry.

Results are given in words; binding and its absence hold for the method and conditions named. Binding seen in cells or lysates may run through a third protein. These calls come from enrichment with a bait or labelling near it, and not all partners need be listed.

As for “DDX39B, endogenous, HeLa cells (from UniProt Q13838 1-428)”, in experiment [1], the binding result is “binds”.
Turning to “EIF4A3, endogenous, HeLa cells (from UniProt P38919 1-411)”, the binding entry in experiment [2] is listed as “binds”.
For the substance “EIF4A3, endogenous, mouse embryonic stem cells (from UniProt Q91VC3 1-411)”, the binding result in experiment [3] was “binds”.
Regarding “PABPC1, endogenous, HeLa cells (from UniProt P11940 1-636)”, the binding result in experiment [1] is given as “binds”.
